Results are given in words; binding and its absence hold for the method and conditions named. In cells and extracts the contact can be indirect. Here binding means that the protein was enriched with, or labelled near, the bait; the list need not be complete. Sequences can lack the tags named with a protein.

By UniProt entry, the sequences of proteins in these tests, tags left out.
UniProt Q27331: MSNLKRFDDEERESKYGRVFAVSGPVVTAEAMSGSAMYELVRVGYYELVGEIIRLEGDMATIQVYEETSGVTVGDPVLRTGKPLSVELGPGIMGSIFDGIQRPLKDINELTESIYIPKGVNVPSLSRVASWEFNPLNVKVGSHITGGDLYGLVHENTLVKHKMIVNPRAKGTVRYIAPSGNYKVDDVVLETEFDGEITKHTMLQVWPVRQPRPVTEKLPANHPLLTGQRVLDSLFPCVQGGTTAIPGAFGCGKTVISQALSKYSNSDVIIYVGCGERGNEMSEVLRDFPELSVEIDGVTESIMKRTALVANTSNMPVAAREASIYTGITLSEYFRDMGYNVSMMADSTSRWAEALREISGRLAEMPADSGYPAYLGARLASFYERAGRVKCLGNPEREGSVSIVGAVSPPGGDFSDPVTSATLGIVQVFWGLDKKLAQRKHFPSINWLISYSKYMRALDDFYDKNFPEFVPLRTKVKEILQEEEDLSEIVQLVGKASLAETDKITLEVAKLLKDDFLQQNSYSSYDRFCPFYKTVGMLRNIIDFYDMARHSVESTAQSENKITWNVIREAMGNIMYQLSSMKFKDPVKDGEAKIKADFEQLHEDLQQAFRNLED

The assay concerns the target T1, Vap33-YFP (endogenously YFP-tagged Vap33) (Drosophila (endogenous in embryos)) (UniProt Q9W4N8).
T1 sequence: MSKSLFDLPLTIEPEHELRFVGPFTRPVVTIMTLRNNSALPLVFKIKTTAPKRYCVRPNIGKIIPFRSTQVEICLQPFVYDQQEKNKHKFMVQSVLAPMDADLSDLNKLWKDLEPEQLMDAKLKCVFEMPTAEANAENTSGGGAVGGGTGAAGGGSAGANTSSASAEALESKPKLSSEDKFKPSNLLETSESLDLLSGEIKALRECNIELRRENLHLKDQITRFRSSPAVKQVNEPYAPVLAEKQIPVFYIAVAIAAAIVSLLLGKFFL
Nature of the assay: affinity purification with mass spectrometry; Vap33-YFP captured from Drosophila embryo extracts on GFP-Trap resin (GFP nanobody); Default Lysis Buffer (50 mM Tris-HCl pH 7.5, 125 mM NaCl, 0.2% IGEPAL); three biological replicates against yw controls; SAINT analysis.

In the case of “RtGEF (Rho-type guanine nucleotide exchange factor) (Drosophila (endogenous in embryos))”, the binding result is recorded as “binds”.
For “Vha68-2 (V-ATPase component) (from UniProt Q27331 1-614)”, the binding result was “binds”.

B1: Git (G protein-coupled receptor kinase interacting ArfGAP) (protein, UniProt Q95RG8 1-731)
chain: MCFASSIIEAHRKLFIAPPDLDHSDPATPTISTRSKMPRGKSRLQTEVCGDCGAGDPSWASINRGILLCADCCSVHRSLGRHISIVKSLRQGNWEPSVLNFVNSLNAHGANSVWEHHLLDGSTNSTGGKHVPRWRKPTPKDALHPTKSDFIKAKHVNLTFVLKPSLQDDDDGNGSAGCLEQELSRQLHASVRTSNLETSLRFLVQGADPNYYHEDKLSTPLHMAAKFGQASQIEMLLIYGADVNALDGNGMTPLELARANNHNTIAERLLDAMYDVTDRIITFLGGKKPDHASGRHMIIPDANGADISEQLKIARGKLQLVPNKMFEELVMDLYDEVDRRECEAIWSTSTLNADHATVPFLPANPFLSATRNQGRQKLARFNRAEFTGLLTDVLVDAMRRQNMANLRPMDAPVAGHQSLQSLPYANNSMLLGSFEQGGHDPNLSDDEPIYDPVASDDDYAPVPPMAQQAIVHTPPRSANSHNEMETLRKQLNDYKSEINQLKNVVQMLSSENTQLKSKFSSASNNSVYDEPLRIDLSLSSPDTEHEPLSLPEGGTANGESGSSNDSSNQSTIKRPASMYERRLVPNVAKGNTDIRNTTSMYQMAGDGKPFGEEVKVRSDLVTRRLKELIRAMQPVPEDQKQSIAPHGELIRSAVTDLIALYANLPPNASDPSRETLKLLTRQNILIQHECENLQKAIEADDKQAIQKNTLEVRDCAFHIASAIKTLVLQFY
Take B1: the binding entry was “binds”.
